Measured values as given in patent publication US20220073581A1.
No constants are given. Whether binding was seen depends on the method and setting. Some binding calls cover weakened binding; strength is not graded here.

By UniProt entry, the sequences of proteins in these tests, tags left out. Residues count along the entry.
UniProt P22301, residues 19-178: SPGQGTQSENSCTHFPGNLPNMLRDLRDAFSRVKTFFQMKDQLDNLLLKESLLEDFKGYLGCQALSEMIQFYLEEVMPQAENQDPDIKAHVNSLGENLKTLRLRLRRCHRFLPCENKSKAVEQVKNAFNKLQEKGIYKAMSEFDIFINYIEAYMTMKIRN

Biological target: T1, IL-10 receptor (UniProt Q13651)
T1 sequence (looked up): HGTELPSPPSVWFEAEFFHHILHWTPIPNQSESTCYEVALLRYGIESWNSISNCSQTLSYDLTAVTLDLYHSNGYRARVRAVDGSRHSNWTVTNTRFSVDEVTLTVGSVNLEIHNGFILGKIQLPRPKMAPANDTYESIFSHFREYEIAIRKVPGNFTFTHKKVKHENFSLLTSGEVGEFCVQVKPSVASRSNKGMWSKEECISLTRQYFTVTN
Assay: SPR competition, IL-10 pre-incubated with IL-10 receptor abolishes its binding to the captured CA645/IL-10 fusion

- binding: binds
Substance: IL-10, soluble competing ligand (from UniProt P22301 19-178)
